Assay results taken from article doi:10.1101/2021.02.10.430627.
These are yes or no findings as the source states them, for the method shown. In cells and extracts the contact can be indirect. Some results given as binding are weak or reduced against the parent protein; the word gives no strength.

Sequences of proteins named here, by UniProt entry; tags and fusion partners are left off.
UniProt Q00420: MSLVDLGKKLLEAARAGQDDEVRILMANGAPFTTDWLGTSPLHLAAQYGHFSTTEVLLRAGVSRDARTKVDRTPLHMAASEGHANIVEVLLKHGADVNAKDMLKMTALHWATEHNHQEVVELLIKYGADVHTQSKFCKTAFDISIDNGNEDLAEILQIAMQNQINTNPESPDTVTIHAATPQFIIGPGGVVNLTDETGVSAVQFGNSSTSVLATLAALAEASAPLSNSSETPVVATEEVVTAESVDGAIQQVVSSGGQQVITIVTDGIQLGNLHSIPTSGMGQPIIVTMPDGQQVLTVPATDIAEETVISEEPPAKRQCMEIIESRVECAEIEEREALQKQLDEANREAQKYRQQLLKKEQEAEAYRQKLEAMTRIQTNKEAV

Target: GABPB1 (mouse (endogenous in E13.5 embryonic right ventricles)) (UniProt Q00420)
Assay: co-IP

binding: binds
B1: GABPA (protein, UniProt Q00422 1-454)
chain: MTKREAEELIEIEIDGTEKAECTEESIVEQTYTPAECVSQAIDINEPIGNLKKLLEPRLQCSLDAHEICLQDIQLDPDRSLFDQGVKTDGTVQLSVQVISYQGMEPKLNILEIVKTAETVEVVIDPDAHHAEAEAHLVEEAQVITLDGTKHITTISDETSEQVTRWAAALEGYRKEQERLGIPYDPIHWSTDQVLHWVVWVMKEFSMTDIDLTTLNISGRELCSLNQEDFFQRVPRGEILWSHLELLRKYVLASQEQQMNEIVTIDQPVQIIPASVPPATPTTIKVINSSAKAAKVQRSPRISGEDRSSPGNRTGNNGQIQLWQFLLELLTDKDARDCISWVGDEGEFKLNQPELVAQKWGQRKNKPTMNYEKLSRALRYYYDGDMICKVQGKRFVYKFVCDLKTLIGYSAAELNRLVIECEQKKLARMQLHGIAQPVTAVALAATSLQADKEI
